Laboratory results reported in patent US20250109127A1, “METHODS OF USE OF PHENOXYPROPYLAMINE COMPOUNDS TO TREAT DEPRESSION” (Minerva Neurosciences, Inc., priority 2013, published 2025).
Where “and” joins values, the source holds several entries; their conditions need not be identical. Equal entries are not always repeated. Further values from the same series stand in other lists.

System: dopamine release in the rat prefrontal cortex
Assay: Microdialysis: dopamine release in prefrontal cortex after I.P. administration
Assay type: in vivo
Conditions: 3 mg/kg IP, per animal R#15,16,21,22,27,28,09,10
Protocol: The aim of the study was to evaluate, using microdialysis, the effects of an intraperitoneal (I.P.) administration in rats of three different doses of SON-117 on dopamine and its metabolites, serotonin and its metabolite (5-HIAA), and norepinephrine levels in prefrontal cortex.
Thirty-two adult male Wistar rats were used for the whole study (4 groups of eight animals planned for the study, Table 1).
Surgery was performed on rats weighing about 300 g at the beginning of the experiments. Rats were anaesthetized with Ketamine (50 mg/kg) & Xylazine (15 mg/kg) by intramuscular administration. The animals were placed in a stereotaxic apparatus in the flat-skull position at a constant setting of −3.3 mm between ear bars and the incisor bar. The animals were treated with a local anesthesic (xylocaine 1%, Astra Zeneca) and an analgesic (Temgesic, from Schering Plough, 0.05 mg/kg, s.c.). A rostrocaudal midline incision was made with a lancet to expose the dorsal skull surface. The “stereotaxic zero” was defined by the Bregma in accordance with Paxinos and Watson's atlas (1986). A hole was drilled in the skull with a drill and the meninges were pierced with a sterile needle to implant a CMA12 guide cannula which later received the dialysis probe.
Coordinates used for implanting guide cannula in prefrontal cortex from Bregma were anteroposterior 3.7 mm, mediolateral 0.8 mm, and dorsoventral −2 mm (top of the probe was at −5 mm). The guide cannula was fixed to the skull with two stainless steel screws (1.88 mm outside diameter) anchored. An application of dental cement was added. A plastic collar allowed each animal to be tethered to a Swivel assembly of the CMA 120 awake animal system. Following surgery, rats were kept in individual cages and allowed to recover for a minimum of 3-5 days before the experimentation. The rats were handled and put in plastic bowl for 10 min at least every day to habituate the animals to their new environment for the dialysis. An I.P. administration with saline was also performed every day.
Dialysis probes (CMA12/3 mm, membrane, 20 kD cut-off, Carnegie Medicine, Stockholm, Sweden), were carefully washed before inserting into the guide cannula. The wash was performed with the artificial cerebrospinal fluid (aCSF) medium (NaCl 147 mM, KCl 2.7 mM, CaCl2 1.2 mM, MgCl2 0.85 mM) at room temperature. The dialysis system was then equilibrated at 20° C. at a perfusion rate of 1 μl/min with a Carnegie pump (CMA100). All catheters (FEP tubing, internal volume of 1.2 μl/10 cm, and tubing adaptors) used for microdialysis were treated in the same conditions.
The probes duly prepared were inserted into the guide cannula and the CMA120 Swivel assembly secured to the animal using a plastic collar. Flow through the dialysis probe with aCSF was maintained at a rate of 1 μl/min during the whole experimentation. The first four fractions (corresponding to 2 hours) were discarded to avoid the effects of parenchymal disturbance and to ensure that an approximate steady-state level was reached. Fractions were then collected over a period of 8.5 h during which time the animals remained quiet. The dialysates were automatically collected with an autosampler (microfraction collector CMA 140, Carnegie Medicin) and stored at −80° C. until analysis. […] Perfusion was then maintained for 7 hours with aCSF. The dialysates (30 μl) were collected into 300 μl vials, transferred into dry ice and then kept frozen (−80° C.) until analysis. Frozen samples were shipped to a partner for analysis. At the end of the microdialysis study, a PBS with colored ink was perfused through the probe in order to visualize the dialyzed area.
Catecholamine assay: Concentrations of dopamine, DOPAC, HVA, 5-HIAA, 5-HT, and norepinephrin were determined for each sample by HPLC coupled with electrochemical detection.

Q: What does the source list for Cc1nnc(-c2cc3c(OC[C@@H](O)CN4CCC(c5ccc(Cl)c(Cl)c5)CC4)cccc3o2)o1.Cl [SON117]?
A: Dopamine release, individual animals (T0-T30 min): 74.36 % of respective basal and 99.14 % of respective basal and 268.40 % of respective basal and 124.48 % of respective basal and 110.89 % of respective basal and 106.79 % of respective basal and 176.72 % of respective basal and 74.98 % of respective basal; Dopamine release, individual animals (T30-T1 h): 134.73 % of respective basal and 105.04 % of respective basal and 142.58 % of respective basal and 173.21 % of respective basal and 86.78 % of respective basal and 108.67 % of respective basal and 69.20 % of respective basal and 64.11 % of respective basal; Dopamine release, individual animals (T1 h 30-T2 h): 360.72 % of respective basal and 138.09 % of respective basal and 162.59 % of respective basal and 58.59 % of respective basal and 46.35 % of respective basal and 84.07 % of respective basal and 85.41 % of respective basal and 138.23 % of respective basal; Dopamine release, individual animals (T1 h-T1 h 30): 121.19 % of respective basal and 129.07 % of respective basal and 613.75 % of respective basal and 120.73 % of respective basal and 65.12 % of respective basal and 76.88 % of respective basal and 128.93 % of respective basal and 98.80 % of respective basal; Dopamine release, individual animals (T2 h 30-T3 h): 186.56 % of respective basal and 135.32 % of respective basal and 135.75 % of respective basal and 91.01 % of respective basal and 39.85 % of respective basal and 120.81 % of respective basal and 98.27 % of respective basal and 113.76 % of respective basal; Dopamine release, individual animals (T2 h-T2 h 30): 132.88 % of respective basal and 103.94 % of respective basal and 162.53 % of respective basal and 105.32 % of respective basal and 43.82 % of respective basal and 130.53 % of respective basal and 78.02 % of respective basal and 92.38 % of respective basal; Dopamine release, individual animals (T3 h 30-T4 h): 184.88 % of respective basal and 118.94 % of respective basal and 114.14 % of respective basal and 109.07 % of respective basal and 50.59 % of respective basal and 99.12 % of respective basal and 91.85 % of respective basal and 135.55 % of respective basal; Dopamine release, individual animals (T3 h-T3 h 30): 234.25 % of respective basal and 169.02 % of respective basal and 100.15 % of respective basal and 109.01 % of respective basal and 46.30 % of respective basal and 91.78 % of respective basal and 69.37 % of respective basal and 120.14 % of respective basal; Dopamine release, individual animals (T4 h 30-T5 h): 242.69 % of respective basal and 66.02 % of respective basal and 127.97 % of respective basal and 87.34 % of respective basal and 70.60 % of respective basal and 62.20 % of respective basal and 123.12 % of respective basal; Dopamine release, individual animals (T4 h-T4 h 30): 360.17 % of respective basal and 91.98 % of respective basal and 153.23 % of respective basal and 58.98 % of respective basal and 42.22 % of respective basal and 102.67 % of respective basal and 77.52 % of respective basal and 127.38 % of respective basal; Dopamine release, individual animals (T5 h 30-T6 h): 286.57 % of respective basal and 92.91 % of respective basal and 189.03 % of respective basal and 84.11 % of respective basal and 52.74 % of respective basal and 89.24 % of respective basal and 164.66 % of respective basal and 225.94 % of respective basal; Dopamine release, individual animals (T5 h-T5 h 30): 229.44 % of respective basal and 89.68 % of respective basal and 183.13 % of respective basal and 81.81 % of respective basal and 47.98 % of respective basal and 113.49 % of respective basal and 86.39 % of respective basal and 154.89 % of respective basal; Dopamine release, individual animals (T6 h 30-T7 h): 342.88 % of respective basal and 100.85 % of respective basal and 315.87 % of respective basal and 147.30 % of respective basal and 56.17 % of respective basal and 99.06 % of respective basal and 154.36 % of respective basal and 122.94 % of respective basal; Dopamine release, individual animals (T6 h-T6 h 30): 329.83 % of respective basal and 100.06 % of respective basal and 109.70 % of respective basal and 83.47 % of respective basal and 58.10 % of respective basal and 83.02 % of respective basal and 157.26 % of respective basal; Dopamine release, individual animals (T-30 min-T0 (before administration)): 72.70 % of respective basal and 96.12 % of respective basal and 125.71 % of respective basal and 118.20 % of respective basal and 102.57 % of respective basal and 94.02 % of respective basal and 62.49 % of respective basal and 97.39 % of respective basal; Dopamine release, individual animals (T-1 h 30-T-1 h (before administration)): 110.19 % of respective basal and 94.95 % of respective basal and 106.72 % of respective basal and 64.60 % of respective basal and 90.89 % of respective basal and 104.64 % of respective basal and 150.73 % of respective basal and 112.56 % of respective basal; Dopamine release, individual animals (T-1 h-T-30 min (before administration)): 112.15 % of respective basal and 110.05 % of respective basal and 69.36 % of respective basal and 116.82 % of respective basal and 106.45 % of respective basal and 101.44 % of respective basal and 90.31 % of respective basal and 87.76 % of respective basal
